# Experimental data as given in US20240287054A1, “COMPOUNDS THAT BIND NON-CANONICAL G-QUADRUPLEX STRUCTURES AND METHODS OF MAKING AND USING THE SAME” (The U.S.A., as Represented by the Secretary, Department of …, priority 2021, published 2024).
# For at least one compound, name, drawing or mass did not settle the structure.
# Experiments:
# [1] = target: MYCN G4 DNA; assay: Surface plasmon resonance (SPR) with immobilized biotinylated MYCN G4 DNA; type: binding, human; settings: MYCN G4, Langmuir 1:1 model
# Method: Surface plasmon resonance (SPR) analysis. The SPR binding assays were performed with a BIAcore 3000 (GE Healthcare) instrument. A CM5 SPR biochip was loaded into the system and primed with running buffer (10 mM Tris, pH7.0, 100 mM KCl, 0.005% Tween 20, 5% DMSO) with a flow rate of 5 μL/min. Then both Flow Cell (Fc) 1 and 2 were activated by EDC/NHS (0.4 M/0.1 M) aqueous solution for 15 min, followed with an injection of streptavidin (SA) solution (0.2 mg/mL in 10 mM sodium acetate buffer, pH4.5) for 30 minutes. After the immobilization amount of SA reached 8,000-10,000 RU, the surface was deactivated by flowing 1 M Ethanolamine aqueous solution (pH 8.5) for 10 min and regenerated with 10 mM NaOH for 2 min to remove the unbound SA. In the meantime, biotinylated MYCN G4 DNA was prepared at 5 μM in the annealing buffer and heated up to 95° C. for 5 min and slowly cooled down. After annealing, a total of 150 μL solution was injected in the Fc 2 of SPR system for 30 min to immobilize DNA onto the chip surface. […]
# To detect the binding signal as well as the binding affinity, a higher flowing rate (25 μL/min) was used in both Fc 1 (reference) and Fc 2 (DNA). […] To determine the binding affinity (KD), a series of diluted compound solutions were injected and KD was calculated by BIAevaluation 4.0 software (GE Healthcare) using Langmuir 1:1 binding model. […]
# [2] = test system: dsDNA; assay: SPR binding to dsDNA; settings: up to 5 μM compound injection
# [3] = test system: 12 different G4 oligos as well as non-G4 oligos (dsDNA and ssDNA); assay: Small-scale DNA G4 microarray binding selectivity; settings: fluorescent compound incubated 1 h; B33 at 2.5 μM
# Method: In this example, a small-scale DNA G4 microarray containing 12 different G4 oligos as well as non-G4 oligos (dsDNA and ssDNA) was fabricated and tested (Table 4). To start with, a SA-coated glass surface was prepared. An amino-functionalized glass slide was firstly modified with a solution of N, N′-disuccinimidyl carbonate (DSC, 1.0 M) and N, N-diisopropylethylamine (DIPEA, 1.0 M) in DMF overnight at room temperature. After being washed successively with EtOH, Milli-Q water (5 min each) and dried with N2 gas, the slide was incubated with 1 mg/mL of SA solution for 12 h (overnight) in a 4° C. fridge, followed by blocking the surface with EA buffer for 30 minutes. Then, the slide was rinsed with PBS buffer and Milli-Q water, and dried b centrifugation (1,700 g, 2 min).
# In parallel, biotin-labeled DNA/RNA oligos were prepared in annealing buffer resulting in 5 μM stock solutions, followed by annealing (according to above methods). Then all the oligo solutions were transferred into a 384-well plate. […]
# To incubate with the fluorescent compounds (compound B33, thiazole orange (“TO”), and amsacrine), the slide was thoroughly rinsed with PBST, PBS, and water to remove the unbounded oligos. […] Finally, the microarray slide was imaged by a fluorescence scanner (Mapix) using green channel and the fluorescence intensities were quantified.
compound,measurement,setting,value
"COc1cc(NS(C)(=O)=O)ccc1Nc1c2ccccc2nc2ccccc12 [Amsacrine, reference compound]",Kd,[1],2900 ± 500 nM
same,binding to dsDNA on SPR,[2],bound to dsDNA at low micromolar level
same,binding pattern in G4 microarray,[3],"binding to several G4s in the microarray, especially NRAS RNA G4 and the three hairpin-G4s (MYCN, hTERT and BCL2)"
